Measured data: PubChem BioAssay AID504791 (Drosophila RNAi Screening Center, 2011)
In all, the deposit lists about 23,000 reagents; below is an unselected part of those with a known target gene and a result. In the full data, 199 (0.86%) were called active. 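Plate-scaled ratios behind the calls are not deposited; printed light signals are raw; many rows marked increased or decreased are still called inactive.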 Reagents against one gene are numbered here. Not stated in the record: the direction of the score.

Aim: 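Genes whose knock-down strengthens or weakens small-RNA reporter silencing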 (primary screen)
Cells: Drosophila S2-derived reporter cells
Knock-down reagent: long dsRNA against Drosophila genes, about 150-250 ng dsRNA per well (siRNA assay); about 80-120 ng (miRNA assay)
Timing: about 5 days (siRNA assay); about 4 days (miRNA assay)
Challenge: copper sulfate induction of reporters: 25 µM (siRNA assay); 200 mM stated (miRNA assay), 1-2 days before reading
Measurement: 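Per-well ratio of Renilla over firefly light, expressed relative to that plate's average ratio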
Active means: 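First-pass picks had plate-scaled ratios over 1.5 for the siRNA assay, over 1.6 for the miRNA assay, or under 0.6; two distinct dsRNAs had to score alike on retest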

gene knocked down,dsRNA no.,"stable assay Renilla, run 1 (luminescence)","stable assay firefly, run 1 (luminescence)",outcome
IKKbeta (I-kappaB kinase beta),1,8487,3.47e5,inactive
Ucp4A (Uncoupling protein 4A),1,4792,3.62e5,inactive
"DCTN3-p24 (Dynactin 3, p24 subunit)",1,90139,2.96e5,inactive
CG17660,1,3.84e5,2.37e5,inactive
CG9372,1,7031,3.66e5,inactive
l(3)neo38 (lethal (3) neo38),1,5219,4.63e5,inactive
l(3)neo38 (lethal (3) neo38),2,7271,3.60e5,inactive
l(3)neo38 (lethal (3) neo38),3,5379,5.01e5,inactive
CG31515,1,4475,4.27e5,inactive
CG7974,1,10013,3.47e5,inactive
CG33937 (retired record),1,7571,6.74e5,inactive
AstC-R1 (Allatostatin C receptor 1),1,7742,4.73e5,inactive
Cec2 (Cecropin 2),1,9331,5.60e5,inactive
CG18598,1,10107,4.48e5,inactive
CG32248,1,4607,3.68e5,inactive
Fer2 (48 related 2),1,6652,5.01e5,inactive

Reformatted: entries from further up.
gene knocked down | dsRNA no. | stable assay Renilla, run 1 (luminescence) | stable assay firefly, run 1 (luminescence) | outcome
CG17660 | 1 | 3.84e5 | 2.37e5 | inactive
CG9372 | 1 | 7031 | 3.66e5 | inactive

Additional results follow.
gene knocked down,dsRNA no.,"stable assay Renilla, run 1 (luminescence)","stable assay firefly, run 1 (luminescence)",outcome
Evi5 (Ecotropic viral integration site 5),1,5724,4.55e5,inactive
dbf (doublefault),1,7002,4.10e5,inactive
CG13046,1,7214,4.10e5,inactive
Hdc (Histidine decarboxylase),1,8462,4.17e5,inactive
CG34007,1,4935,2.82e5,inactive
Ir48b (Ionotropic receptor 48b),1,6754,3.52e5,inactive
sif (still life),1,4652,4.02e5,inactive
sif (still life),2,5762,4.03e5,inactive
sif (still life),3,9760,6.07e5,inactive
sif (still life),4,4299,3.86e5,inactive
lncRNA:CR32385 (long non-coding RNA:CR32385),1,4667,4.74e5,inactive
CG7362,1,4135,4.73e5,inactive
eIF4E7 (eukaryotic translation initiation factor 4E7),1,6095,3.79e5,inactive
eIF4E7 (eukaryotic translation initiation factor 4E7),2,6386,3.55e5,inactive
CG11076,1,6051,3.68e5,inactive
babos,1,6966,4.89e5,inactive
babos,2,20642,5.08e5,inactive
CG18371,1,6575,3.15e5,inactive
